This is an account of results in patent publication US20190030126A1, “Inhibitors of the Interaction BCL-2 L10 / IP3 Receptors” (Universite Claude Bernard - Lyon 1, priority 2016, published 2019).

Results are given in words; binding and its absence hold for the method and conditions named. In cells and extracts the contact can be indirect.

One assay addresses HA-Beclin1. The experiment in a line: streptavidin pull-down from extracts of transfected HeLa cells.
The target of assay [1] is Flag-Nrz (ortholog from zebrafish) (zebrafish (Danio rerio)). The assay is described as above.

B1: biotin-labelled Nrh 1-23 wild-type peptide (peptide)
peptide: MADPLRERTELLLADYLGYCARE
modifications: biotin-labelled (position not given)
On to B1, for which the binding result (with HA-Beclin1; in assay [1]) was “no binding (tested: 5 µg of biotin-labelled peptide)” each time.
